# This is one part of the list.
# By UniProt entry, the sequences of proteins in these tests, tags left out.
# UniProt Q0JBA9, entry or part of it: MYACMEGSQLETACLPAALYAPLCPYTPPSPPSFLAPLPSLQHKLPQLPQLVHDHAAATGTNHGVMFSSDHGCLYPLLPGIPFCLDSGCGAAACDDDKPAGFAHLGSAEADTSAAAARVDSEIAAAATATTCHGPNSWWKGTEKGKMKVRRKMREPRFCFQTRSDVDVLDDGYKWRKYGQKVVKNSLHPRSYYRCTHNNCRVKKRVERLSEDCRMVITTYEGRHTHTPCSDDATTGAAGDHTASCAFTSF
# Target: OsWRKY34 (Oryza sativa, UniProt Q0JBA9 1-250)
# Assay: protein-binding microarray (RPBM); PBS, 2% BSA, 51.3 ng/ul salmon testes DNA, 50 uM zinc acetate, 200 nM TF, 25 C, 1 h; high values mean tight binding
# Settings: protein: recombinant; tags: N-terminal polyhistidine and DsRed monomer fusion (pET32a); label: CyDye5-dUTP incorporated in the synthesized complementary strand; 3' TTTTT single-stranded linker to array surface; dsDNA, one strand shown
# How it was run: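 In PBS with 2% BSA, salmon testes DNA and 50 µM zinc acetate, 200 nM protein was incubated on a custom Agilent array at 25 °C for 1 h and then washed off. The array had been made double-stranded by primer extension with Cy5-dUTP and blocked with 2% BSA. The proteins were transcription factors fused N-terminally to polyhistidine and DsRed, expressed in E. coli BL21-CodonPlus and purified on Ni–NTA. The binding signal is per-feature fluorescence intensity (arbitrary units) from an Axon 4000B scanner.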
row,Sequence,binding signal
1,TTGGCGGTACCTTCTTCGTCCCACGTCCGTATTCTATCTTCGGAGTCACCTAGTGCAG,10000 fluorescence intensity (a.u.)
2,ACTTTCCTAATTGCGATTCGGCGAAGTCGCGTTATAATACCGGAGTCACCTAGTGCAG,10500 fluorescence intensity (a.u.)
3,ATCCTCCACTCCTCCACATCGACCGCCTCGATCTCTCTCTCGGAGTCACCTAGTGCAG,9120 fluorescence intensity (a.u.)
4,CAGCACATACATATATACTACTACTCCAGTTCCCTAGCTACGGAGTCACCTAGTGCAG,9720 fluorescence intensity (a.u.)
5,CCTCGTCTCGTCGCCCCGAAGCACCACACCACAACCACAACGGAGTCACCTAGTGCAG,8110 fluorescence intensity (a.u.)
6,CGTCGGTCTCTCTCTCTCGCTCTCGTCCCCGCCGCGGCGCCGGAGTCACCTAGTGCAG,9950 fluorescence intensity (a.u.)
7,GCGGCCATGTGTTTACCTACTGTTCTCTCCTGCCTCCACACGGAGTCACCTAGTGCAG,8760 fluorescence intensity (a.u.)
8,GGGGCGCCGCCGTTCGTCCTGCTGCTTCCGCCGCATCCTGCGGAGTCACCTAGTGCAG,9650 fluorescence intensity (a.u.)
9,GTTGTAGTTGTGTTGCGTTCGCGTAGAAGTGGGTCGATCTCGGAGTCACCTAGTGCAG,9130 fluorescence intensity (a.u.)
10,GGGTTCGATTCCCCGCACCTCCAATATAAAACGTTTTCTTCGGAGTCACCTAGTGCAG,9000 fluorescence intensity (a.u.)
11,CTAAACACGATTCGCGAGCCACACTCCTGCTGTCACTCGTCGGAGTCACCTAGTGCAG,8310 fluorescence intensity (a.u.)
12,ACTCCCTCCGTTTCACAATGTAAGTCATTCTAGCATTTCCCGGAGTCACCTAGTGCAG,9500 fluorescence intensity (a.u.)
13,CTGGTGAACGGTTTGAATGAGTTTAGGGGCGAACATATCTCGGAGTCACCTAGTGCAG,8450 fluorescence intensity (a.u.)
14,GCATTCGTTTATGTTTCCGGTCTATGTCTTGCTTAGTCACCGGAGTCACCTAGTGCAG,8910 fluorescence intensity (a.u.)
15,GAGATGCGGCACGGTTGGCTTGTTGACTTTTTCCGGCCCGCGGAGTCACCTAGTGCAG,17500 fluorescence intensity (a.u.)
16,TGGGGTTGAGGGAGGGTGCCGCGGGTGGCTGGCGGAGGACCGGAGTCACCTAGTGCAG,10600 fluorescence intensity (a.u.)
17,GCTAATTGGGCCTTCAGGTAGGGGTGGGCGTTCGGTCTGACGGAGTCACCTAGTGCAG,15700 fluorescence intensity (a.u.)
18,AAATTGTTGTACGGGGTATGTTATACTGGCCAGCTTTGTACGGAGTCACCTAGTGCAG,8600 fluorescence intensity (a.u.)
19,TTTTTCATTTGCAAATCGGTACCGTACGTGTTATTTCTCTCGGAGTCACCTAGTGCAG,11000 fluorescence intensity (a.u.)
20,AGTGTAATCTTGTAATTTTCTTCTGCTCTATCAATAGAACCGGAGTCACCTAGTGCAG,8360 fluorescence intensity (a.u.)
21,GCCCTTGTTTAGTTCCAAACTTTTTTTCAAACTTCCAACTCGGAGTCACCTAGTGCAG,9850 fluorescence intensity (a.u.)

# Some of the entries so far, tab-delimited:
row	Sequence	binding signal
13	CTGGTGAACGGTTTGAATGAGTTTAGGGGCGAACATATCTCGGAGTCACCTAGTGCAG	8450 fluorescence intensity (a.u.)
14	GCATTCGTTTATGTTTCCGGTCTATGTCTTGCTTAGTCACCGGAGTCACCTAGTGCAG	8910 fluorescence intensity (a.u.)
15	GAGATGCGGCACGGTTGGCTTGTTGACTTTTTCCGGCCCGCGGAGTCACCTAGTGCAG	17500 fluorescence intensity (a.u.)
16	TGGGGTTGAGGGAGGGTGCCGCGGGTGGCTGGCGGAGGACCGGAGTCACCTAGTGCAG	10600 fluorescence intensity (a.u.)
17	GCTAATTGGGCCTTCAGGTAGGGGTGGGCGTTCGGTCTGACGGAGTCACCTAGTGCAG	15700 fluorescence intensity (a.u.)
18	AAATTGTTGTACGGGGTATGTTATACTGGCCAGCTTTGTACGGAGTCACCTAGTGCAG	8600 fluorescence intensity (a.u.)
19	TTTTTCATTTGCAAATCGGTACCGTACGTGTTATTTCTCTCGGAGTCACCTAGTGCAG	11000 fluorescence intensity (a.u.)

# (further entries)

row,Sequence,binding signal
1,CTGCCTCTTCATGCCGCTTATTAAAGTCTCCACCCTCCGCCGGAGTCACCTAGTGCAG,8530 fluorescence intensity (a.u.)
2,AGTTGTGGACTGGAAGAGAGGGGAGGCATGGGGACAAAGACGGAGTCACCTAGTGCAG,9320 fluorescence intensity (a.u.)
3,CCCAAGTTGGTTTCGAGCTCTACATCCATGTGCCTCCACTCGGAGTCACCTAGTGCAG,8440 fluorescence intensity (a.u.)
4,ACAGCGACCCGATCACTCTCTCACTGTCTCGTTCACGTAGCGGAGTCACCTAGTGCAG,8050 fluorescence intensity (a.u.)
5,GCATCAAACACTCTCATCTATGTTGGGGTTTTCACGTATACGGAGTCACCTAGTGCAG,9730 fluorescence intensity (a.u.)
6,AATCTACCCCTGTCTTCTCCATTCAATCGTTCATCCTTTCCGGAGTCACCTAGTGCAG,9070 fluorescence intensity (a.u.)
7,CAGTTCACTATTCTTTCTGCTATATACATGTATGATTTTACGGAGTCACCTAGTGCAG,9000 fluorescence intensity (a.u.)
8,TTCTGCGTGTGAGTGGGTTTTCTTCCTAGTGGTTTAAATACGGAGTCACCTAGTGCAG,12700 fluorescence intensity (a.u.)
9,TCTGTCAGAATCATGTGTTTTTCCTATCCCTCCATTTTTTCGGAGTCACCTAGTGCAG,8410 fluorescence intensity (a.u.)
10,CGCCGTTTAGTTTTTACTAACGTTTGACCATTTTTCTTATCGGAGTCACCTAGTGCAG,11700 fluorescence intensity (a.u.)
11,AATGCCCGACCTCGATCATCATCTCACACGTTGCTCATCACGGAGTCACCTAGTGCAG,12400 fluorescence intensity (a.u.)
12,CCAGCCACTTCCTCTCAACATCTTCTCATGTCTTTTTGTACGGAGTCACCTAGTGCAG,8360 fluorescence intensity (a.u.)
13,CGCATCCAACCCATCCTCACTTCTCAACTGATTCTCGTATCGGAGTCACCTAGTGCAG,8810 fluorescence intensity (a.u.)
14,GACATGGATCCTACGTAGTACTGCAACATACCAAATTACCCGGAGTCACCTAGTGCAG,9240 fluorescence intensity (a.u.)
15,ACTACCTTTAAACGCTATGGTTTGGGACTGCTCTCATGTACGGAGTCACCTAGTGCAG,9010 fluorescence intensity (a.u.)
16,CCTTGGGTGGGTACGGATTGGATTAGGGAGGGGAGCACAACGGAGTCACCTAGTGCAG,17600 fluorescence intensity (a.u.)
17,TTCTGTCAATTCCTTTCACCATTTTCAGGCTGAATTTTGTCGGAGTCACCTAGTGCAG,9250 fluorescence intensity (a.u.)
18,CTCTTTACCAACACTATATAACCCGCAGTGGACCTGCAGTCGGAGTCACCTAGTGCAG,8060 fluorescence intensity (a.u.)
19,CCAATATTCTAAACATACATCCTAGCCATTTCAATTTTCACGGAGTCACCTAGTGCAG,8300 fluorescence intensity (a.u.)
20,GTGATGCCACCGCTATGTTGACCAAGTCTCGGCCAGCTTCCGGAGTCACCTAGTGCAG,12800 fluorescence intensity (a.u.)
21,ATAAATTTAGCCTCTTTTGTTTAGTATTGCAACTACCAATCGGAGTCACCTAGTGCAG,9720 fluorescence intensity (a.u.)

row,Sequence,binding signal
1,GCCCCACATGTCAGGTTGTTCACGTCATCACTCTCTTTCACGGAGTCACCTAGTGCAG,14800 fluorescence intensity (a.u.)
2,AATGCAAGGACCACGCCGCCGACGAGCACCACCAGCCATGCGGAGTCACCTAGTGCAG,8430 fluorescence intensity (a.u.)
3,TTTGCTTCTGTTGTTAACCGTGCACCGTGCGCATACATCACGGAGTCACCTAGTGCAG,10300 fluorescence intensity (a.u.)
4,TGCCGCGCGCCATTTCTCTCGCGTCAGAAGGTTGCAACGCCGGAGTCACCTAGTGCAG,9560 fluorescence intensity (a.u.)
5,TTCTCCCGTGGTCGTCCAACTGTCCAACTGTACAGCCTGCCGGAGTCACCTAGTGCAG,8680 fluorescence intensity (a.u.)
6,TACTTGCTTTCTCCTGACTCTCAGCAAGAACATTAGTTATCGGAGTCACCTAGTGCAG,8800 fluorescence intensity (a.u.)
7,AGCGCTTGAATACACTCAACCGATCCAACATCCTCCACTTCGGAGTCACCTAGTGCAG,8220 fluorescence intensity (a.u.)
8,CGCCGCCGCACCACGCGCTCCACCCCTCTGCGACGTTGACCGGAGTCACCTAGTGCAG,13800 fluorescence intensity (a.u.)
9,TTGGCATTATTAACTAGCTGCAGCGTCACATATTTCACTACGGAGTCACCTAGTGCAG,9930 fluorescence intensity (a.u.)
10,ACTGAGTATTATTATATCCTAACTAAGTTATCGTACATTCCGGAGTCACCTAGTGCAG,8060 fluorescence intensity (a.u.)
11,CACAAACACATTCCGGCATCTATCGCAAGCCAAACCACCCCGGAGTCACCTAGTGCAG,8610 fluorescence intensity (a.u.)
12,ATTCTACTATTGATTGATCATGTGTTTTAGTTATCACATCCGGAGTCACCTAGTGCAG,8020 fluorescence intensity (a.u.)
13,GTCATATACACACAATTTTTCAGTCACATCGTACCAATTTCGGAGTCACCTAGTGCAG,10200 fluorescence intensity (a.u.)
14,ATTGCTTTTTTATATTGTAACATGATTTTACTTTCTTTTCCGGAGTCACCTAGTGCAG,10900 fluorescence intensity (a.u.)
15,ACCAGCCCGGTTGACCCTCCTGCTAGGTACAAGTGTTTTTCGGAGTCACCTAGTGCAG,10700 fluorescence intensity (a.u.)
16,GTCCACTACCCGCCACACCACCACCAGCCACATTTGATCCCGGAGTCACCTAGTGCAG,8330 fluorescence intensity (a.u.)
17,TTGCCGGGATGGGCGAGCTTTGGGCGGGATTTGATCGGCTCGGAGTCACCTAGTGCAG,13100 fluorescence intensity (a.u.)
18,TCTATTTAAAATATGGTAGGGCTTTTTATGTTTTCTACAACGGAGTCACCTAGTGCAG,10400 fluorescence intensity (a.u.)
19,GTTCTTCAGGTCGTACTCTCTCTCCTCATCAATCCAATCTCGGAGTCACCTAGTGCAG,8600 fluorescence intensity (a.u.)
20,GGATAAACTAAGCTTTTCACCTTGGACCAGGTATTTTTCCCGGAGTCACCTAGTGCAG,8940 fluorescence intensity (a.u.)
21,AAAGTAGTTCTTTTTATTTTTGTGGCTTCTAATTCTTTTCCGGAGTCACCTAGTGCAG,8210 fluorescence intensity (a.u.)

row,Sequence,binding signal
1,AATTCGAGTTGTATAAGGGTGCGTGGTTGATTTTTAGTCTCGGAGTCACCTAGTGCAG,9680 fluorescence intensity (a.u.)
2,CCACCCCACCACCCACACCCTAACACTTATAAATACCCCTCGGAGTCACCTAGTGCAG,9440 fluorescence intensity (a.u.)
3,TCACCTACGGCGCCACCGACTCGTGCTACGGCCCCTACGGCGGAGTCACCTAGTGCAG,8130 fluorescence intensity (a.u.)
4,TCGGTTTTATTGGTACGATAGTTGGTCACTACCCCTAATTCGGAGTCACCTAGTGCAG,8370 fluorescence intensity (a.u.)
5,CCCTCCGGCCGGCGCCTGTGCGCCGCTTCTTATTTCTGCCCGGAGTCACCTAGTGCAG,8490 fluorescence intensity (a.u.)
6,CTCCACTCCTCCCACACGCCCGCATCGCCGCCGCCTCTCCCGGAGTCACCTAGTGCAG,8150 fluorescence intensity (a.u.)
7,TCCGGGGTGAATACAAATGTTCAGCTTTTCTGTCCGTCTCCGGAGTCACCTAGTGCAG,8150 fluorescence intensity (a.u.)
8,GGTCCTTATATATACATCAGCACGAGCTCGCCATGGCATCCGGAGTCACCTAGTGCAG,8750 fluorescence intensity (a.u.)
9,GCCGCCATCCCCACCATCGCCGTCGCCGTCGCCTCGCCTCCGGAGTCACCTAGTGCAG,13300 fluorescence intensity (a.u.)
10,GGATAATATGGGTGGGGATGAAGTGTGGAGGTGGCATATCCGGAGTCACCTAGTGCAG,10600 fluorescence intensity (a.u.)
11,CCTATAGTTGTTTAAATGTGTCAGTTCTCTGTTTTTTATCCGGAGTCACCTAGTGCAG,8950 fluorescence intensity (a.u.)
12,TTACCTCATCCGGTTTAATATATGACGTTTAGACATGCGTCGGAGTCACCTAGTGCAG,9660 fluorescence intensity (a.u.)
13,GCGCCGTTCCTGCACGATTTCGACCGCGTCTACGCCGAGGCGGAGTCACCTAGTGCAG,9340 fluorescence intensity (a.u.)
14,TGTGGTGGAGGCCGGCTGGGTTCTCTTGGGGTTTGGCCGGCGGAGTCACCTAGTGCAG,10400 fluorescence intensity (a.u.)
15,CCATATACTCAGTTAACCATGTTAAATTTCATCTTAATAACGGAGTCACCTAGTGCAG,8860 fluorescence intensity (a.u.)
16,AAGAAATCCTCCGCCGCCGCCGCCGCCGCCGCCGCCAACGCGGAGTCACCTAGTGCAG,8090 fluorescence intensity (a.u.)
17,GTCCTCTTTTGTACCCTACTCTCGCTCACAGTAGCCGCTTCGGAGTCACCTAGTGCAG,9780 fluorescence intensity (a.u.)
18,GTTTTTTAATATGTATGTATGCAAAGTTTGTATACACGTACGGAGTCACCTAGTGCAG,8070 fluorescence intensity (a.u.)
19,CTGCTCCGCCGCCGCCGCCGCCGTCCTCGATCCATCCATGCGGAGTCACCTAGTGCAG,9110 fluorescence intensity (a.u.)
20,CACCGATTGCTCTCTCTTTGACCAAACAAAGACCGGGGCACGGAGTCACCTAGTGCAG,8670 fluorescence intensity (a.u.)
21,GTTCTTTACCGGCATCGCTTACTTTGTTAATGTAAATTAACGGAGTCACCTAGTGCAG,8820 fluorescence intensity (a.u.)

# Reference: publication PMC7819943, “Rice protein-binding microarrays: a tool to detect cis-acting elements near promoter regions in rice”
